Results deposited as PubChem BioAssay AID1224828 (NIAID, 2016).
The whole screen tested about 17,000 reagents; this is a part drawn at random. Of all reagents, 762 (4.5%) got an active call. 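Active calls include both raised and lowered p65 entry, mostly lowered; wells with fewer than 50 cells lack a z-score.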 The raw values are shown without normalisation.

- Test: 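Knock-downs that increase or decrease LPS-induced p65 nuclear translocation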 (primary screen)
- Cell system: mouse RAW264.7 G9 macrophage reporter cells (GFP-p65, Tnf promoter-mCherry)
- Reagents: siRNA pool against mouse genes, 100 nM
- Time to read-out: 2 days siRNA transfection, then 40 min LPS before fixation
- Challenge: LPS (Salmonella minnesota R595) at 10 ng/ml
- Detection: 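Imaged p65 nuclear translocation ratio, normalised to the plate median, converted to robust z-scores and averaged across two replicates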
- Reading the numbers: p65 translocation robust z-score: higher = more nuclear NF-kappaB p65 after LPS than the plate median; nuclear/cytoplasmic p65 ratio: higher = more nuclear NF-kappaB p65
- Hit rule: 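Called active when z exceeds 3.3 or falls under -1.56 (median of Tlr4 controls), giving activity score of at least 50; no calls for control wells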
- Calls: active = hit (p65 shift raised or lowered); inactive = no clear change

Myf6
- p65 translocation robust z-score: 0.35
- nuclear/cytoplasmic p65 ratio, rep 1: 1.46
- nuclear/cytoplasmic p65 ratio, rep 2: 1.41
- low cell count flag: enough cells to score
- outcome: inactive

Glra1
- p65 translocation robust z-score: -1.47
- nuclear/cytoplasmic p65 ratio, rep 1: 1.2
- nuclear/cytoplasmic p65 ratio, rep 2: 1.22
- low cell count flag: enough cells to score
- outcome: inactive

Or8g17
- p65 translocation robust z-score: 0.21
- nuclear/cytoplasmic p65 ratio, rep 1: 1.65
- nuclear/cytoplasmic p65 ratio, rep 2: 1.44
- low cell count flag: enough cells to score
- outcome: inactive

B230340J04Rik
- p65 translocation robust z-score: 0.15
- nuclear/cytoplasmic p65 ratio, rep 1: 1.67
- nuclear/cytoplasmic p65 ratio, rep 2: 1.49
- low cell count flag: enough cells to score
- outcome: inactive

Pkp3
- p65 translocation robust z-score: 0.73
- nuclear/cytoplasmic p65 ratio, rep 1: 1.61
- nuclear/cytoplasmic p65 ratio, rep 2: 1.49
- low cell count flag: enough cells to score
- outcome: inactive

Or11h4
- nuclear/cytoplasmic p65 ratio, rep 1: 1.59
- nuclear/cytoplasmic p65 ratio, rep 2: 1.38
- low cell count flag: fewer than 50 cells per well; well left out of scoring
- outcome: inactive

A430033K04Rik
- p65 translocation robust z-score: 1.03
- nuclear/cytoplasmic p65 ratio, rep 1: 1.53
- nuclear/cytoplasmic p65 ratio, rep 2: 1.65
- low cell count flag: enough cells to score
- outcome: inactive

Abcc9
- p65 translocation robust z-score: 0.67
- nuclear/cytoplasmic p65 ratio, rep 1: 1.72
- nuclear/cytoplasmic p65 ratio, rep 2: 1.71
- low cell count flag: enough cells to score
- outcome: inactive

Dnajb1
- p65 translocation robust z-score: 1.95
- nuclear/cytoplasmic p65 ratio, rep 1: 1.75
- nuclear/cytoplasmic p65 ratio, rep 2: 1.59
- low cell count flag: enough cells to score
- outcome: inactive

Nars1
- p65 translocation robust z-score: 1.02
- nuclear/cytoplasmic p65 ratio, rep 1: 1.86
- nuclear/cytoplasmic p65 ratio, rep 2: 1.83
- low cell count flag: enough cells to score
- outcome: inactive

Sri
- p65 translocation robust z-score: 1.73
- nuclear/cytoplasmic p65 ratio, rep 1: 1.68
- nuclear/cytoplasmic p65 ratio, rep 2: 1.4
- low cell count flag: enough cells to score
- outcome: inactive

Ndufa7
- p65 translocation robust z-score: -0.95
- nuclear/cytoplasmic p65 ratio, rep 1: 1.64
- nuclear/cytoplasmic p65 ratio, rep 2: 1.44
- low cell count flag: enough cells to score
- outcome: inactive

Hinfp
- p65 translocation robust z-score: 0.7
- nuclear/cytoplasmic p65 ratio, rep 1: 1.68
- nuclear/cytoplasmic p65 ratio, rep 2: 1.75
- low cell count flag: enough cells to score
- outcome: inactive

Otulinl
- p65 translocation robust z-score: 1.64
- nuclear/cytoplasmic p65 ratio, rep 1: 1.73
- nuclear/cytoplasmic p65 ratio, rep 2: 1.68
- low cell count flag: enough cells to score
- outcome: inactive

Ccdc88b
- nuclear/cytoplasmic p65 ratio, rep 1: 1.19
- nuclear/cytoplasmic p65 ratio, rep 2: 1.39
- low cell count flag: fewer than 50 cells per well; well left out of scoring
- outcome: inactive

Shtn1
- nuclear/cytoplasmic p65 ratio, rep 1: 1.16
- nuclear/cytoplasmic p65 ratio, rep 2: 1.1
- low cell count flag: fewer than 50 cells per well; well left out of scoring
- outcome: inactive

Or10ak14
- nuclear/cytoplasmic p65 ratio, rep 1: 1.52
- nuclear/cytoplasmic p65 ratio, rep 2: 1.49
- low cell count flag: fewer than 50 cells per well; well left out of scoring
- outcome: inactive

Tcea1
- p65 translocation robust z-score: 0.61
- nuclear/cytoplasmic p65 ratio, rep 1: 1.54
- nuclear/cytoplasmic p65 ratio, rep 2: 1.67
- low cell count flag: enough cells to score
- outcome: inactive

Parp4
- p65 translocation robust z-score: 0.56
- nuclear/cytoplasmic p65 ratio, rep 1: 1.58
- nuclear/cytoplasmic p65 ratio, rep 2: 1.43
- low cell count flag: enough cells to score
- outcome: inactive

Zhx1
- p65 translocation robust z-score: -0.2
- nuclear/cytoplasmic p65 ratio, rep 1: 1.48
- nuclear/cytoplasmic p65 ratio, rep 2: 1.48
- low cell count flag: enough cells to score
- outcome: inactive

Gadd45g
- p65 translocation robust z-score: -0.62
- nuclear/cytoplasmic p65 ratio, rep 1: 1.37
- nuclear/cytoplasmic p65 ratio, rep 2: 1.27
- low cell count flag: enough cells to score
- outcome: inactive

Entries above whose gene name starts with O or o (4):
Or8g17
- p65 translocation robust z-score: 0.21
- nuclear/cytoplasmic p65 ratio, rep 1: 1.65
- nuclear/cytoplasmic p65 ratio, rep 2: 1.44
- low cell count flag: enough cells to score
- outcome: inactive

Or11h4
- nuclear/cytoplasmic p65 ratio, rep 1: 1.59
- nuclear/cytoplasmic p65 ratio, rep 2: 1.38
- low cell count flag: fewer than 50 cells per well; well left out of scoring
- outcome: inactive

Otulinl
- p65 translocation robust z-score: 1.64
- nuclear/cytoplasmic p65 ratio, rep 1: 1.73
- nuclear/cytoplasmic p65 ratio, rep 2: 1.68
- low cell count flag: enough cells to score
- outcome: inactive

Or10ak14
- nuclear/cytoplasmic p65 ratio, rep 1: 1.52
- nuclear/cytoplasmic p65 ratio, rep 2: 1.49
- low cell count flag: fewer than 50 cells per well; well left out of scoring
- outcome: inactive
